Experiment: Liquid/liquid extraction of Pu(IV) from aqueous solution (Tables 7 and 8)
Description: Liquid/liquid extractions were performed with the radioactive plutonium isotope ^242 Pu at the Lawrence Livermore National Laboratory's Glenn T. Seaborg Institute for Transactinium Science, Livermore, Calif. The aqueous phase contained ^242 Pu, while the organic phases contained 3,2-HOPO ligands at 2-5 mM concentration. Kinetic studies were the primary method used to determine the efficacy of the specific ligand in organic solvent. Generally, five microcentrifuge tubes were prepared with the same organic and aqueous phases, and shaken with a vortex-style mixer for 1, 5, 10, and 20 minutes. After mixing, an aliquot of each phase was pipetted from the tube into a scintillation vial, mixed with a scintillation cocktail, and scintillation counted to determine the amount of the radioactive species present in each phase after extraction.

[1] = octanol, 0.10M aqueous, 1.0 min
[2] = octanol, 0.10M aqueous, 5.0 min
[3] = octanol, 0.10M aqueous, 10.0 min
[4] = octanol, 0.10M aqueous, 20.0 min
[5] = octanol, 5.0M aqueous, 10.0 min
[6] = octanol, 5.0M aqueous, 20.0 min

Row | SMILES | Decontamination Factor (MIBK, 0.10M aqueous, 1.0 min) | Decontamination Factor (MIBK, 0.10M aqueous, 5.0 min) | Decontamination Factor (MIBK, 0.10M aqueous, 10.0 min) | Decontamination Factor (MIBK, 0.10M aqueous, 20.0 min) | Decontamination Factor (MIBK, 5.0M aqueous, 1.0 min) | Decontamination Factor (MIBK, 5.0M aqueous, 5.0 min) | Decontamination Factor (MIBK, 5.0M aqueous, 10.0 min) | Decontamination Factor (MIBK, 5.0M aqueous, 20.0 min) | Decontamination Factor [1] | Decontamination Factor [2] | Decontamination Factor [3] | Decontamination Factor [4] | Decontamination Factor (octanol, 5.0M aqueous, 1.0 min) | Decontamination Factor (octanol, 5.0M aqueous, 5.0 min) | Decontamination Factor [5] | Decontamination Factor [6]
1 | CCCCCCCCCCNC(=O)c1ccn(C)c(=O)c1O [Me-2-HOPO-Decylamide] | 54.63 ± 0.85 | 24.40 ± 0.62 | 14.63 ± 0.46 | 6.97 ± 0.27 | 47.00 ± 0.79 | 47.62 ± 0.76 | 23.87 ± 0.58 | 5.52 ± 0.23 | 3.22 ± 0.15 | 26.39 ± 0.61 | 20.71 ± 0.55 | 13.11 ± 0.42 | 57.64 ± 0.84 | 27.98 ± 0.25 | 15.74 ± 0.47 | 8.51 ± 0.31
2 | CCCCCCCCNC(=O)c1ccn(C)c(=O)c1O [Me-2-HOPO-Octylamide] | 22.90 ± 0.59 | 12.22 ± 0.41 | 31.07 ± 0.68 | 28.56 ± 0.58 | 80.22 ± 0.91 | 54.99 ± 0.82 | 27.82 ± 0.64 | 6.20 ± 0.25 | 17.83 ± 0.50 | 18.10 ± 0.50 | 12.71 ± 0.41 | 11.32 ± 0.38 | 45.22 ± 0.76 | 37.91 ± 0.70 | 20.78 ± 0.54 | 11.69 ± 0.38
